{"sequences": {"note": "Chains of the proteins cited; added tags and fusions are not shown. Lines headed by an entry give the natural chain unless they say otherwise; changes in a name come on top. Residues count along the entry.", "UniProt Q92576": "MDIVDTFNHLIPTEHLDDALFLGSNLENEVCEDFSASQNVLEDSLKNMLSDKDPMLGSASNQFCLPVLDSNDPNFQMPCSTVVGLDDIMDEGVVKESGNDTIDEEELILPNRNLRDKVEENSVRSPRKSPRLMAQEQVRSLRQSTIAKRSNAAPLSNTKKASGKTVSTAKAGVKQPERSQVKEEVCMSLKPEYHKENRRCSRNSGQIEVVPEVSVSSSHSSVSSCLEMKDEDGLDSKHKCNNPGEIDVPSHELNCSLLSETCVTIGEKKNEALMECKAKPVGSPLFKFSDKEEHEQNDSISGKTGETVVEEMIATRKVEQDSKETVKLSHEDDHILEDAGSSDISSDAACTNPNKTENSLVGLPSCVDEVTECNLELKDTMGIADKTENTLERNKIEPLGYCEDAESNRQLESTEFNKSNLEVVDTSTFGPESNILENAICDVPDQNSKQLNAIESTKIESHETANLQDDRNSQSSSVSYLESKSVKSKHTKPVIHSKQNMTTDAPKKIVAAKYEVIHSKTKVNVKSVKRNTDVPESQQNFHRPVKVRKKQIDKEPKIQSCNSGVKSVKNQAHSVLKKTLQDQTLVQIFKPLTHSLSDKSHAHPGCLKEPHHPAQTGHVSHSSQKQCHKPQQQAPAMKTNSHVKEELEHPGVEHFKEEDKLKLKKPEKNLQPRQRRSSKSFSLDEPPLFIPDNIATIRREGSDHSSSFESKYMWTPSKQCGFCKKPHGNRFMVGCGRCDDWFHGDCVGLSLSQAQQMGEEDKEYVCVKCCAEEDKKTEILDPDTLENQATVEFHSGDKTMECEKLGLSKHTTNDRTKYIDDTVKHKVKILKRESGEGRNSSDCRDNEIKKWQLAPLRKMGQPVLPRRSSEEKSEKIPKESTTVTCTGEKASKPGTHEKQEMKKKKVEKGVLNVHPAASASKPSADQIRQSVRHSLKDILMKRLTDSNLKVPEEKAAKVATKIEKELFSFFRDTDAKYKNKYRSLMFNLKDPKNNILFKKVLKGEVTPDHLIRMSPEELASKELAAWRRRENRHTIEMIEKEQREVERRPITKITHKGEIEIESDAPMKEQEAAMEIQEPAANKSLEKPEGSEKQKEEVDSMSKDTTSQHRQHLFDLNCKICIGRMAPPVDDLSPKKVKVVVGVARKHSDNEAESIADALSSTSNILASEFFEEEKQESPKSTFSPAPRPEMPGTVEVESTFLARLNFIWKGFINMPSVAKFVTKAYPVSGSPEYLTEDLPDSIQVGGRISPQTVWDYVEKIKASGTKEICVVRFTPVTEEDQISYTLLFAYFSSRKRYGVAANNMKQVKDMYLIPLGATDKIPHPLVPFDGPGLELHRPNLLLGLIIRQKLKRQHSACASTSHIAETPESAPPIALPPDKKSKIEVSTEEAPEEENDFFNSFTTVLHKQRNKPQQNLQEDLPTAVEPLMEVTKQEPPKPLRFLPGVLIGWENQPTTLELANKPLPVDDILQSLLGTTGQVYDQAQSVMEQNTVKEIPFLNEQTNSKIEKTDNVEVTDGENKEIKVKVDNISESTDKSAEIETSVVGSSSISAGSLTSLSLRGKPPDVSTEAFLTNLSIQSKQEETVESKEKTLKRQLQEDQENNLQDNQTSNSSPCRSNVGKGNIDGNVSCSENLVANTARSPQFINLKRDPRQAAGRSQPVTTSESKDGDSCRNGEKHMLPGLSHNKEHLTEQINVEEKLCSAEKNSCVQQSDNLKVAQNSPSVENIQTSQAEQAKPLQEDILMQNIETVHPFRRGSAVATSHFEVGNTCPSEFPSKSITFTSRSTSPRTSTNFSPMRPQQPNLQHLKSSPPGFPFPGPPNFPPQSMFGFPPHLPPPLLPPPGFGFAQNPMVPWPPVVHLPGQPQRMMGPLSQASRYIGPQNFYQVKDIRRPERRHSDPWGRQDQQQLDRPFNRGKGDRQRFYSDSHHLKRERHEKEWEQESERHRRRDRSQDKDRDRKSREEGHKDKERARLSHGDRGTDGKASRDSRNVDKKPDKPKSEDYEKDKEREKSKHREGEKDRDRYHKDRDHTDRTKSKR", "UniProt O75439": "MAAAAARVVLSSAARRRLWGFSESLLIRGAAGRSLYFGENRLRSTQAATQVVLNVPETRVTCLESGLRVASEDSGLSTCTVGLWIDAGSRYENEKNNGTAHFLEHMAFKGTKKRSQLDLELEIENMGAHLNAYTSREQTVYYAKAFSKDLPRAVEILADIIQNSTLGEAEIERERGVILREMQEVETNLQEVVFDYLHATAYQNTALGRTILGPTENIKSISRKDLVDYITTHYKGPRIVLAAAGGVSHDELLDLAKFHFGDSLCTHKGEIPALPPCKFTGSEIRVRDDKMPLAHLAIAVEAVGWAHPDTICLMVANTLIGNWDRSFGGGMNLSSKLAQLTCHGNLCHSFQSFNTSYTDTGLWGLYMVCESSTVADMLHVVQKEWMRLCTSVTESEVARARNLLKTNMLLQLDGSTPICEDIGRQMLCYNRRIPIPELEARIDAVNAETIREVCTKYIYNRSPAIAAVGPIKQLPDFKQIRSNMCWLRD", "UniProt Q16513, 100-120": "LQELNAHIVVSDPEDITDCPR", "UniProt Q13526, 96-117": "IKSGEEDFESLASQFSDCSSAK", "UniProt Q9NVS9": "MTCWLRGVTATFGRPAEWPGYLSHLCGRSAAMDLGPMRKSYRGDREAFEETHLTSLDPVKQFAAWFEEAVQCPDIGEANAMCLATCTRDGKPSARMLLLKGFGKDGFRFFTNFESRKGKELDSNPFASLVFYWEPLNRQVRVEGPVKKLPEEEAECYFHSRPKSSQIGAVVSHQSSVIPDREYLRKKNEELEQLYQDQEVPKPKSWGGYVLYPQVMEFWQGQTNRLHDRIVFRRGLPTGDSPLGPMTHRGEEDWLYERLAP", "UniProt P15735": "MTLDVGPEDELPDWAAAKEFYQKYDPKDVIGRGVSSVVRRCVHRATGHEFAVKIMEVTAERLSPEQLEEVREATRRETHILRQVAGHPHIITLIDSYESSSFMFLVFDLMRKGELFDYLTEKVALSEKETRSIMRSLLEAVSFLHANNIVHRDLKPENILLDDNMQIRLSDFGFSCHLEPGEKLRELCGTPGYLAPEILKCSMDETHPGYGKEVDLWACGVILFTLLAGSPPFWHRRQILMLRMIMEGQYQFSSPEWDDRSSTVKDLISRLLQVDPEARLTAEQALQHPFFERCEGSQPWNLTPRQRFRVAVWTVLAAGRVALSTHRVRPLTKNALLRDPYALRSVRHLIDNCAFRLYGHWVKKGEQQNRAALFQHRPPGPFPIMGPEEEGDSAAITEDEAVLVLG", "UniProt P16885": "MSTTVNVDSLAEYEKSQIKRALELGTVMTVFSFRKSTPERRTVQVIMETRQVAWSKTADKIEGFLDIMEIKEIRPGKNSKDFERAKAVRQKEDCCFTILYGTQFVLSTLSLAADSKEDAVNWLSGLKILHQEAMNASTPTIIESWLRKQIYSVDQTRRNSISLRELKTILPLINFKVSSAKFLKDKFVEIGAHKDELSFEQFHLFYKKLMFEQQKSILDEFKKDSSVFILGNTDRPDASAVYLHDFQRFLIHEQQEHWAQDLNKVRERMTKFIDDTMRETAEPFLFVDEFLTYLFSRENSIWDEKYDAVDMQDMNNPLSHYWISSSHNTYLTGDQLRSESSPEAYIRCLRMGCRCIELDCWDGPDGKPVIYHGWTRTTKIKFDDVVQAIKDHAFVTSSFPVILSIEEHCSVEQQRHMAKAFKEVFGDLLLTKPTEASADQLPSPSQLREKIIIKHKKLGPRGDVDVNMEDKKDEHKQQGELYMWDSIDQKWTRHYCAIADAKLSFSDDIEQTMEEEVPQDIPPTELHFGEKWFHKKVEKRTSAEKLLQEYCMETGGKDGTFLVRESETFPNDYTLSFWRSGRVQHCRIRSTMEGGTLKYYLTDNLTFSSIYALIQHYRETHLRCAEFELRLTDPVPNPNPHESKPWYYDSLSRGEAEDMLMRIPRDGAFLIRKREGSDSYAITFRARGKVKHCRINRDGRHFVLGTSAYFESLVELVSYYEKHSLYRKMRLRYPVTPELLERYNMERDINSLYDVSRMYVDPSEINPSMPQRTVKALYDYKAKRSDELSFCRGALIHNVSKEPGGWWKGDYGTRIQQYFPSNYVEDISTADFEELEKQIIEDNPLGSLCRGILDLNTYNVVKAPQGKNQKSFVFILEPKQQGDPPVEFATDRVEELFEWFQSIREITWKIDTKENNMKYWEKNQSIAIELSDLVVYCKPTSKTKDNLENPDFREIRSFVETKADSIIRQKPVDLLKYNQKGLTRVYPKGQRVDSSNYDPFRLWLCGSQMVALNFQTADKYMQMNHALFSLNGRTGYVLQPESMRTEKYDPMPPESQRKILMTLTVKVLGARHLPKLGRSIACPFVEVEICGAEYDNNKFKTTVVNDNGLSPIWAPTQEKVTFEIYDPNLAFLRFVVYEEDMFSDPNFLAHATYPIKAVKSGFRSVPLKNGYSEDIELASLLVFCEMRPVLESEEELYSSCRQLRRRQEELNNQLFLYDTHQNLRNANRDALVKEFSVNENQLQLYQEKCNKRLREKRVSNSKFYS", "UniProt P48426": "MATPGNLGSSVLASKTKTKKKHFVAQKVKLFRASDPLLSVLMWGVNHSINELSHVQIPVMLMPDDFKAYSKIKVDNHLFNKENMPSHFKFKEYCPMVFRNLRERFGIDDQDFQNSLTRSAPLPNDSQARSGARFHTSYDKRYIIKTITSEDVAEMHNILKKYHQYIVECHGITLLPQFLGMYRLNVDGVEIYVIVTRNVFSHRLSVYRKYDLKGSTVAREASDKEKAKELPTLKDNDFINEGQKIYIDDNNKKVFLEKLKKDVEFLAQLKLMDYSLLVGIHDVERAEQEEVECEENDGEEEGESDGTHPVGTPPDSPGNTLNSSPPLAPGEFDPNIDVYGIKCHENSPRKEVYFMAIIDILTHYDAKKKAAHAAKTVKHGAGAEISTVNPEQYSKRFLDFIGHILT", "UniProt P28340": "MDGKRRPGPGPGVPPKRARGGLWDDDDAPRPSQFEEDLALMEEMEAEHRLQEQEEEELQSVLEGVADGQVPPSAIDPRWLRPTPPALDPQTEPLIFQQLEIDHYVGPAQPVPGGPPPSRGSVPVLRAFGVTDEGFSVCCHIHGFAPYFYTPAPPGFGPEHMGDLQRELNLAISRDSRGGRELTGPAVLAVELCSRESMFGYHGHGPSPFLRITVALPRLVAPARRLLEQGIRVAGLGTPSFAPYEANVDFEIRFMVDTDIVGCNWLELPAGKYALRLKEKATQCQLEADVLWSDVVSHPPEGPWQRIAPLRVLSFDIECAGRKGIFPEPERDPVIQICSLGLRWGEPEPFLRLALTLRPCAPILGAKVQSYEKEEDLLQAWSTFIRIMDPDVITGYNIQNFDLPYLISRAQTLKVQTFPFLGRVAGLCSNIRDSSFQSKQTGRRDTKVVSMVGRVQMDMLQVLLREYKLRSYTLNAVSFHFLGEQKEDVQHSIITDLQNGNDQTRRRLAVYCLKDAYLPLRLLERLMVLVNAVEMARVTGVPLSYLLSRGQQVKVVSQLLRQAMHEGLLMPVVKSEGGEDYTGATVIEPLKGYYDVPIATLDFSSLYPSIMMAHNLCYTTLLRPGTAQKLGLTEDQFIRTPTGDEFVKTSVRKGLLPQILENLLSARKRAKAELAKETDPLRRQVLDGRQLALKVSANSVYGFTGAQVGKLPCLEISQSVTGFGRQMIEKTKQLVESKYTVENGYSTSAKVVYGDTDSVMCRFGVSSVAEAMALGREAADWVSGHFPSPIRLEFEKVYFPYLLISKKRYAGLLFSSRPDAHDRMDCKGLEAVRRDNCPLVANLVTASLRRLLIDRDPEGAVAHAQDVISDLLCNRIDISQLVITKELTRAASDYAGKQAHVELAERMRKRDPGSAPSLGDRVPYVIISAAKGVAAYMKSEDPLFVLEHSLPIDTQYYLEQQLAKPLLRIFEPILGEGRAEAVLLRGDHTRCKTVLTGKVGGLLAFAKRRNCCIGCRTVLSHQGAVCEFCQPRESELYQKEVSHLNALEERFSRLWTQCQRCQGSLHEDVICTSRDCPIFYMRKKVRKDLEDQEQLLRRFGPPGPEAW", "UniProt Q15054": "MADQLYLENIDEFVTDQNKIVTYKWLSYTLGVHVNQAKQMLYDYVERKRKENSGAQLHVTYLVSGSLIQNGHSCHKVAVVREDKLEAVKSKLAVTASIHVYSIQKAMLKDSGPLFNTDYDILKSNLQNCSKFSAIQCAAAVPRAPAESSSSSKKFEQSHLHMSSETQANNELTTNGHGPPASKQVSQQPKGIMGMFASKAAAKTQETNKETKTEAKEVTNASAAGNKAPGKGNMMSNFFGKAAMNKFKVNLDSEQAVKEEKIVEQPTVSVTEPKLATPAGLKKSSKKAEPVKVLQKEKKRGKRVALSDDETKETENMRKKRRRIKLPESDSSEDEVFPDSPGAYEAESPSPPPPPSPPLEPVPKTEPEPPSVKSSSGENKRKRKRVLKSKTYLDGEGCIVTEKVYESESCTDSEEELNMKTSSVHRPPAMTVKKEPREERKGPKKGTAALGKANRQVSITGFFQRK"}, "source": "the supplement of paper PMC11732987", "about": "“Enantioselective OTUD7B fragment discovery through chemoproteomics screening and high-throughput optimisation” (Communications Chemistry, 2025)", "note": "The other results are listed elsewhere or left out. The data scatter; read single values as rough.", "data": [{"compound": "ClCC(=O)N[C@@H]1CCCc2ccccc12", "assay": "log2 mean competition ratio of IA-DTB cysteine labelling (DMSO/compound) (log2 ratio); higher = stronger cysteine engagement by compound", "details": "50 µM; treatment time: 4 h; cell line lysate: HEK293T", "experimental": "(§1)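 IA-DTB competitive cysteine chemoproteomics in HEK293T RIPA lysate. Lysates were treated with compound 29 or 30 at 50 or 200 µM for 4 h, then IA-DTB (500 µM, 1 h), trypsin-digested, NeutrAvidin-enriched and analysed by diaPASEF. Competition ratio = intensity DMSO / intensity compound (n=4 treated, n=64 DMSO); binding: mean log2 CR ≥ 1 and p ≤ 0.05 plus QC filters. Target is the cysteine site.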", "values": [{"target": "PHF3 C186 (UniProt Q92576)", "log2 mean competition ratio": 0.151}, {"target": "PLAA C193 (UniProt Q9Y263)", "log2 mean competition ratio": -0.0263}, {"target": "PIK3CA C242 (UniProt P42336)", "log2 mean competition ratio": 0.0632}, {"target": "PMPCB C419 (UniProt O75439)", "log2 mean competition ratio": -0.458}, {"target": "PIGT C182", "log2 mean competition ratio": -0.144}, {"target": "PIAS3 C418", "log2 mean competition ratio": -0.228}, {"target": "PKN2 C118 (UniProt Q16513)", "log2 mean competition ratio": -0.0504}, {"target": "PNKP C353 (UniProt Q96T60)", "log2 mean competition ratio": -0.0441}, {"target": "PIN1 C113 (UniProt Q13526)", "log2 mean competition ratio": -0.153}, {"target": "PNPO C156 (UniProt Q9NVS9)", "log2 mean competition ratio": 0.153}, {"target": "POGZ C1267 (UniProt Q7Z3K3)", "log2 mean competition ratio": 0.00818}, {"target": "PHKG2 C201 (UniProt P15735)", "log2 mean competition ratio": -0.134}, {"target": "PLCG2 C624 (UniProt P16885)", "log2 mean competition ratio": -0.261}, {"target": "PIP4K2A C343 (UniProt P48426)", "log2 mean competition ratio": -0.201}, {"target": "PLOD1 C680 (UniProt Q02809)", "log2 mean competition ratio": -0.11}, {"target": "POLD1 C512 (UniProt P28340)", "log2 mean competition ratio": 0.659}, {"target": "POLD3 C129 (UniProt Q15054)", "log2 mean competition ratio": 0.00385}, {"target": "PIK3R4 C84 (UniProt Q99570)", "log2 mean competition ratio": 0.281}, {"target": "PMS1 C457 (UniProt P54277)", "log2 mean competition ratio": 0.402}, {"target": "POLM C222", "log2 mean competition ratio": -0.171}]}, {"compound": "ClCC(=O)N[C@@H]1CCCc2ccccc12", "assay": "log2 mean competition ratio of IA-DTB cysteine labelling (DMSO/compound) (log2 ratio); higher = stronger cysteine engagement by compound", "details": "200 µM; treatment time: 4 h; cell line lysate: HEK293T", "experimental": "as §1", "values": [{"target": "PHF3 C186 (UniProt Q92576)", "log2 mean competition ratio": -0.0154}, {"target": "PLAA C193 (UniProt Q9Y263)", "log2 mean competition ratio": -0.314}, {"target": "PIK3CA C242 (UniProt P42336)", "log2 mean competition ratio": -0.257}, {"target": "PMPCB C419 (UniProt O75439)", "log2 mean competition ratio": 0.0743}, {"target": "PIGT C182", "log2 mean competition ratio": -0.0053}, {"target": "PIAS3 C418", "log2 mean competition ratio": -0.162}, {"target": "PKN2 C118 (UniProt Q16513)", "log2 mean competition ratio": 0.413}, {"target": "PNKP C353 (UniProt Q96T60)", "log2 mean competition ratio": 0.0748}, {"target": "PIN1 C113 (UniProt Q13526)", "log2 mean competition ratio": 0.243}, {"target": "PNPO C156 (UniProt Q9NVS9)", "log2 mean competition ratio": 0.036}, {"target": "POGZ C1267 (UniProt Q7Z3K3)", "log2 mean competition ratio": -0.000408}, {"target": "PHKG2 C201 (UniProt P15735)", "log2 mean competition ratio": 0.0719}, {"target": "PLCG2 C624 (UniProt P16885)", "log2 mean competition ratio": -0.41}, {"target": "PIP4K2A C343 (UniProt P48426)", "log2 mean competition ratio": -0.0715}, {"target": "PLOD1 C680 (UniProt Q02809)", "log2 mean competition ratio": 0.0838}, {"target": "POLD1 C512 (UniProt P28340)", "log2 mean competition ratio": 0.304}, {"target": "POLD3 C129 (UniProt Q15054)", "log2 mean competition ratio": 0.21}, {"target": "PIK3R4 C84 (UniProt Q99570)", "log2 mean competition ratio": 0.0142}, {"target": "PMS1 C457 (UniProt P54277)", "log2 mean competition ratio": 0.0108}, {"target": "POLM C222", "log2 mean competition ratio": 0.105}]}]}
